In brackets after ≈: the same amount, converted by molar mass.
What was measured:
PC-3 cells = assay: Cell viability; type: cell-based; conditions: Homo sapiens, PC-3, read-out: IC50 (mean ± SD; n = 3)
Outline: (§1)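 Cells were grown in medium with 10% FBS and penicillin/streptomycin 100 units/mL, humidified, at 37 °C and 5% CO2; HT-29 and HEKa were in RPMI-1640. About 2000 cells/well were seeded in 96-well plates. Cells were rinsed once with PBS and five times with distilled water.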

HepG2 cells = assay: Cell viability; type: cell-based; conditions: Homo sapiens, HepG2, read-out: IC50 (mean ± SD; n = 3)
Outline: as §1

## COc1cccc2c1C(=O)c1c(O)c3c(c(O)c1C2=O)C[C@@](O)(C(=O)CO)C[C@@H]3O[C@H]1C[C@H](N)[C@H](O)[C@H](C)O1 [Doxorubicin]
PC-3 cells
  IC50: 1.2 ± 0.6 mg/L (≈ 2.21 µM)
HepG2 cells
  IC50: 0.8 ± 0.1 mg/L (≈ 1.47 µM)

From article PMC10203771 (Saudi Pharmaceutical Journal : SPJ, 2023)
